PubChem BioAssay AID652243 | Drosophila RNAi Screening Center | 2013
The deposit covers about 24,000 reagents; this is an unselected part of those that have a named target and a result. In the full data, 246 (1%) are marked active. 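Plates not normalised; calls are printed but the firefly/Renilla ratio behind them is not deposited; fold cut for lowering reported inconsistently.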 The raw values are shown without normalisation. The numbers tell different reagents against one gene apart. A plus sign joins genes that one reagent is predicted to hit. Not stated in the record: the amount of reagent.

Screen: 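Fly regulators of androgen-dependent reporter output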 (primary screen)
Cells: Drosophila S2R+ cells
Reagent: long dsRNA against Drosophila genes
Time to read-out: 72 h (48 h, then 24 h hormone)
Treatment: synthetic androgen R1881 at 10 nM for 24 h
Measurement: 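Per-well raw luminescence of the androgen-driven firefly reporter and of the Renilla control, two replicates each, without normalisation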
Reading the numbers: firefly reporter light: higher = more light from androgen-responsive reporter; Renilla control light: higher = more constitutive control signal (cell number, transfection)
Call rule: 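Hit when the log firefly-to-Renilla ratio dropped or increased by a fixed fold versus the mean of GFP or LacZ controls across duplicate plates; lowering cut given as 1.5 and as 3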
Calls: active = hit: reporter lowered or raised; inactive = no hit

Target gene | reagent no. | firefly reporter light, replicate 1 | firefly reporter light, replicate 2 | Renilla control light, replicate 1 | Renilla control light, replicate 2 | activity call
Vha44 | 1 | 6.34e5 | 7.13e5 | 1.17e6 | 1.16e6 | inactive
Vha44 | 2 | 1.30e5 | 1.55e5 | 1.35e6 | 1.35e6 | inactive
Vha44 | 3 | 3.00e5 | 2.97e5 | 1.10e6 | 6.66e5 | inactive
CG2611 | 1 | 9.56e5 | 1.16e6 | 1.86e6 | 2.60e6 | inactive
CG2611 | 2 | 3.79e5 | 3.15e5 | 7.83e5 | 7.97e5 | inactive
GstD5 | 1 | 1.20e5 | 1.57e5 | 2.17e6 | 2.60e6 | inactive
GstD5 | 2 | 7.53e5 | 4.33e5 | 4.64e5 | 6.03e5 | inactive
CG12964 | 1 | 4.62e5 | 5.26e5 | 3.09e5 | 3.32e5 | inactive
CG12964 | 2 | 5.58e5 | 6.30e5 | 1.08e6 | 1.08e6 | inactive
CG10005 | 1 | 1.54e5 | 1.64e5 | 2.79e6 | 2.48e6 | inactive
CG5493 + CG5327 | 1 | 1.61e5 | 1.49e5 | 2.11e6 | 2.04e6 | inactive
CG30496 | 1 | 1.44e6 | 1.27e6 | 1.88e6 | 1.72e6 | inactive
KrT95D | 1 | 12513 | 27734 | 2.33e5 | 2.95e5 | inactive
KrT95D | 2 | 4.24e5 | 4.24e5 | 5.17e5 | 4.81e5 | inactive
Pink1 | 1 | 77295 | 58297 | 7.93e5 | 5.19e5 | inactive
Pink1 | 2 | – | – | – | – | inactive
Pink1 | 3 | – | – | – | – | inactive
Yp3 | 1 | 2.71e5 | 3.77e5 | 2.06e6 | 2.56e6 | inactive
Yp3 | 2 | 3.27e5 | 2.55e5 | 6.50e5 | 4.30e5 | inactive
CG4424 | 1 | 59153 | 74306 | 6.75e5 | 5.75e5 | inactive
Ran-like | 1 | 8.23e5 | 6.21e5 | 1.40e6 | 1.41e6 | inactive
GATAe | 1 | 4.37e5 | 3.74e5 | 1.67e6 | 1.68e6 | inactive
CG12659 | 1 | 3.61e5 | 3.90e5 | 2.08e6 | 1.84e6 | inactive
CG12659 | 2 | 3.05e5 | 2.60e5 | 5.74e5 | 3.36e5 | inactive
CG5160 | 1 | 2.16e5 | 2.50e5 | 2.69e6 | 1.59e6 | inactive
CG5160 | 2 | 1.91e5 | 5.79e5 | 5.64e5 | 1.03e6 | inactive
nudC | 1 | 2.97e5 | 1.70e5 | 2.11e6 | 2.02e6 | inactive
nudC | 2 | 2.60e5 | 2.74e5 | 2.56e6 | 2.48e6 | inactive
Argl + CG9515 | 1 | 8.31e5 | 1.20e6 | 1.87e6 | 3.02e6 | inactive
Argl + CG9515 | 2 | 3.38e5 | 2.00e5 | 2.55e6 | 2.20e6 | inactive
EMC2B + EMC2A | 1 | 1.97e5 | 2.17e5 | 3.67e6 | 3.23e6 | inactive
CG4404 | 1 | 1.21e5 | 1.29e5 | 1.69e6 | 2.01e6 | inactive
CG4404 | 2 | 9.16e5 | 9.66e5 | 1.03e6 | 8.27e5 | inactive
Amy-p | 1 | 1.83e5 | 2.47e5 | 1.90e6 | 1.90e6 | inactive
Sec10 | 1 | 66644 | 76996 | 4.38e5 | 4.59e5 | inactive
Sec10 | 2 | 4.03e5 | 5.01e5 | 1.17e6 | 1.10e6 | inactive
CG32266 | 1 | 1.55e5 | 1.78e5 | 4.30e5 | 4.56e5 | inactive
CG32266 | 2 | 3.65e5 | 2.54e5 | 5.85e5 | 8.02e5 | inactive
Eig71Ee | 1 | 2.45e5 | 2.53e5 | 2.44e6 | 2.68e6 | inactive
Ufm1 + mute | 1 | 4.07e5 | 3.10e5 | 3.61e5 | 2.68e5 | inactive

5 entries from above, set out differently.
Target gene,reagent no.,"firefly reporter light, replicate 1","firefly reporter light, replicate 2","Renilla control light, replicate 1","Renilla control light, replicate 2",activity call
GATAe,1,4.37e5,3.74e5,1.67e6,1.68e6,inactive
CG12659,1,3.61e5,3.90e5,2.08e6,1.84e6,inactive
CG12659,2,3.05e5,2.60e5,5.74e5,3.36e5,inactive
CG5160,1,2.16e5,2.50e5,2.69e6,1.59e6,inactive
CG5160,2,1.91e5,5.79e5,5.64e5,1.03e6,inactive
